Results deposited as PubChem BioAssay AID1259425 (University of Nebraska Medical Center, 2018)

Assay: 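Seek colon cancer weak points whose silencing resembles KSR1 loss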 (primary screen)
Cell system: HCT116 human colon cancer cells
Reagent: siRNA pool against human genes, 50 nM siRNA
Read-out: 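After 50 nM siRNA pool, branched-DNA assay measures six marker transcripts per well, minus blank, normalised to the geometric mean of two housekeeping transcripts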
Scale: BNIP3L mRNA: higher = more BNIP3L transcript after knockdown; NDRG1 mRNA: higher = more NDRG1 transcript after knockdown; BNIP3 mRNA: higher = more BNIP3 transcript after knockdown
The deposit covers about 14,000 reagents; below is a random part of them. Further read-outs or replicates are left out here. The record does not give: the time to read-out.

| gene | BNIP3L mRNA, set 1 | NDRG1 mRNA, set 1 | BNIP3 mRNA, set 1 |
| --- | --- | --- | --- |
| MPZL2 | 0.0773 | 0.2 | 0.268 |
| LDB2 | 0.0859 | 0.319 | 0.342 |
| SRSF7 | 0.355 | 0.222 | 0.351 |
| HAO2 | 0.18 | 0.193 | 0.302 |
| CNTN5 | 0.062 | 0.231 | 0.341 |
| L2HGDH | 0.0976 | 0.412 | 0.332 |
| BTNL8 | 0.271 | 0.36 | 0.478 |
| FBXO6 | 0.126 | 0.27 | 0.174 |
| ARL3 | 0.139 | 0.215 | 0.275 |
| RFTN1 | 0.0378 | 0.485 | 0.367 |
| MNAT1 | 0.107 | 0.401 | 0.239 |
| RCBTB2 | 0.109 | 0.0475 | 0.312 |
| AIF1 | 0.0975 | 0.189 | 0.322 |
| KMT5B | 0.184 | 0.311 | 0.253 |
| UGT1A1 | 0.125 | 0.351 | 0.362 |
| HSPA4 | 0.0903 | 0.086 | 0.288 |
| GPR141 | 0.134 | 0.101 | 0.408 |

Entries listed so far whose gene name begins with A or a (2):
| gene | BNIP3L mRNA, set 1 | NDRG1 mRNA, set 1 | BNIP3 mRNA, set 1 |
| --- | --- | --- | --- |
| ARL3 | 0.139 | 0.215 | 0.275 |
| AIF1 | 0.0975 | 0.189 | 0.322 |

Continued:
| gene | BNIP3L mRNA, set 1 | NDRG1 mRNA, set 1 | BNIP3 mRNA, set 1 |
| --- | --- | --- | --- |
| ATF7IP | 0.0952 | 0.167 | 0.307 |
| MSANTD4 | 0.0688 | 0.229 | 0.166 |
| TCEA2 | 0.23 | 0.474 | 0.375 |
| CKAP5 | 0.178 | 0.266 | 0.4 |
| TMEM127 | 0.185 | 0.215 | 0.336 |
| TMBIM6 | 0.154 | 0.251 | 0.308 |
| HNRNPD | 0.185 | 0.23 | 0.37 |
| ATG2B | 0.118 | 0.113 | 0.386 |
| SLC26A2 | 0.0371 | 0.239 | 0.458 |
| SLC23A1 | 0.0607 | 0.101 | 0.269 |
| MED28 | 0.186 | 0.717 | 0.401 |
| MICU1 | 0.152 | 0.946 | 0.428 |
| COX11 | 0.082 | 0.17 | 0.138 |
| SPECC1L | 0.094 | 0.0855 | 0.297 |
| LHPP | 0.135 | 0.541 | 0.278 |
| TMEM40 | 0.0939 | 0.323 | 0.405 |
| LRRFIP2 | 0.0931 | 0.128 | 0.423 |
